What all share (design): species or system murine
For one series, the system named is N901 antibody. Briefly: Modification of antibody with linker (linker per antibody ratio by absorbance). Here is the method: (§1) SPP or SSNPP linker was dissolved in ethanol at a concentration of approximately 10 mM. Antibody was dialyzed into buffer A (50 mM KPi, 50 mM NaCl, 2 mM EDTA, pH 6.5). For the linker reaction, the antibody was at 8 mg/ml, and 7 equivalents of linker were added while stirring in the presence of 5% (v/v) ethanol. The reaction was allowed to proceed at ambient temperature for 90 minutes. Unreacted linker was removed from the antibody by Sephadex G25 gel filtration using a Sephadex G25 column equilibrated with Buffer A at pH 6.5 or 150 mM potassium phosphate buffer containing 100 mM NaCl, pH 7.4 as indicated. For the SPP linker, the extent of modification was assessed by release of pyridine-2-thione using 50 mM DTT and measuring the absorbance at 343 nm as described below (ε343=8080 M^−1 cm^−1 for free pyridine-2-thione). For SSNPP, modification was assessed directly by measuring the absorbance at 325 nm (ε325=10,964 M^−1 cm^−1 for the 4-nitropyridyl-2-dithio group linked to antibody). For the conjugation reaction, thiol-containing drug (either DM1 or DC4) was dissolved in DMA (N,N-dimethylacetamide) at a concentration of approximately 10 mM. The drug (0.8-1.7-fold molar excess relative to the number of linker molecules per antibody as indicated) was slowly added with stirring to the antibody which was at a concentration of 2.5 mg/ml in buffer A (pH 6.5 or pH 7.4) in a final concentration of 3% (v/v) DMA. The reaction was allowed to proceed at ambient temperature for the indicated times. Drug-conjugated antibody was purified using a Sephadex G25 column equilibrated with buffer B (PBS, pH 6.5). For DML, the extent of drug conjugation to antibody was assessed by measuring A252 and A280 of the conjugate as described below. A similar approach was used for DC4 (see below).
Measurement of Releasable Pyridine-2-thione and Ab Concentration of SPP-Modified Ab. The molar ratio of pyridine-2-thione released per mole of antibody is calculated by measuring the A280 of the sample and then the increase in the A343 of the sample after adding DTT (50 μL of 1 M DTT/mL of sample). The concentration of DTT-released pyridine-2-thione is calculated using an ε343 of 8080 M^−1cm^−1. The concentration of antibody can then be calculated using an ε280 of 194,712 M^−1cm^−1 after subtracting the contribution of pyridine-2-thione absorbance at 280 nm (A343 nm post DTT×5100/8080) from the total A280 measured before DTT addition. The molar ratio of pyridine-2-thione:Ab can then be calculated. The mg/mL (g/L) concentration of Ab is calculated using a molecular weight of 147,000 g/mole.
Measurement of antibody-linked 5-Nitropyridyl-2-dithio Groups and Ab Concentration of SSNPP-Modified Ab. The molar ratio of the 4-nitropyridyl-2-dithio groups linked per mole of antibody is calculated by measuring the A280 and A325 of the sample without DTF treatment. The number of antibody-bound 4-nitropyridyl-2-dithio groups is calculated using an ε325 nm of 10,964 M^−1cm^−1. The concentration of antibody can then be calculated using an ε280 nm of 194,712 M^−1cm^−1 after subtracting the contribution of the 5-nitropyridyl-2-dithio group absorbance at 280 nm (A325 nm×3344/10964) from the total A280 nm measured. The molar ratio of 4-nitropyridyl-2-dithio groups:Ab can then be calculated. The mg/mL (g/L) concentration of Ab is calculated using a molecular weight of 147,000 g/mole.

The subject of a further series is N901 antibody with DM1. Briefly: Conjugation (disulfide exchange) of linker-modified N901 antibody with DM1. The settings on record: for % Efficiency (DM1 per antibody divided by linker per antibody times 100) / DM1/Ab: 2 hours. Here is the method: as §1
Calculating Ab and DM1 component concentrations of Ab-DM1. The Ab and DM1 both absorb at the two wavelengths used to measure each component separately, i.e., 280 and 252 nm. The components are quantified using the following algebraic expressions which account for the contribution of each component at each wavelength (CAb is the molar concentration of Ab and CD is the molar concentration of DM1):
Each equation is solved for CAb: [formula] [formula]
and an equality is set up (equation 1a=equation 2a) and solved for CD: [formula]
Once the CD is calculated, the value is used to solve for CAb in equation 1a (or 2a) above. The ratio of DM1:Ab can then be calculated. The mg/mL (g/L) concentration of antibody is calculated using a molecular weight of 147,000 g/mole and the concentration of DM1 is calculated using a molecular weight of 736.5 g/mole (linked DM1)
Efficiency of disulfide exchange is increased with SSNPP. […] The percent efficiency was calculated by dividing the value for DM1 per antibody by the linker per antibody ratio times 100. […] The efficiency of conjugation of N901 with SPP in these experiments was 70% at pH 6.5 and 77% at pH 7.4. […] An additional potential benefit of the increased efficiency with SSNPP is that a reduced molar excess of DM1 may be used in the conjugation reaction. […] A comparison of the time course of the reaction of DM1 with antibody that had been modified with SSNPP or SPP is shown in FIG. 8. In each case the modified antibody was treated with a 1.1-fold molar excess of DM1 per mole of linker incorporated. […] The ability to use 1) a lower molar excess of DM1 and 2) fewer linkers per antibody allows a reduction in the amount of drug needed to achieve a target DM1 to antibody ratio by as much as 50% when using SSNPP as the cross-linker instead of SPP.

A further series deals with N901 antibody with DC4. Briefly: Conjugation (disulfide exchange) of linker-modified N901 antibody with DC4. The settings on record: pH 7.4, 1.4-fold molar excess of DC4 per linker. Here is the method:
as §1
A comparison of conjugation efficiencies using SSNPP and SPP when conjugating the N901 antibody with the DNA-alkylating drug, DC4, a CC-1065 analogue, is shown in Table 3. […] Only much prolonged reaction times may lead to 100% completeness.

The mark [1] stands for this setting: Table 1, N901 antibody, used for conjugation at pH 6.5.
Setting [2] is: Table 1, N901 antibody, used for conjugation at pH 7.4.
Where [3] appears, read: Table 2, antibody used for conjugation at pH 7.4 with 1.1-fold DM1.
The mark [4] stands for this setting: Table 3, N901 antibody used for conjugation with DC4.
Where [5] appears, read: pH 6.5, 1.7-fold molar excess of DM1 per linker.
[6] abbreviates: pH 7.4, 1.1-fold molar excess of DM1 per linker.
[7] abbreviates: pH 7.4, 1.7-fold molar excess of DM1 per linker.

The values below come from US6913748B2, “Cross-linkers with high reactivity and solubility and their use in the preparation of conjugates for targeted delivery of small molecule drugs” (Immunogen, Inc., priority 2002, dated 2005).

Structures are written as SMILES.

Regarding `CC(CCC(=O)ON1C(=O)CCC1=O)SSc1ccccn1` (centres unmarked) [SPP, reference compound], the Linker/Ab with N901 antibody (setting [1]) is reported as 6.6; in the series with N901 antibody (setting [2]), 5.6; with N901 antibody (setting [3]), 5.6; in the series with N901 antibody (setting [4]) it was 5.6. Moreover, the “conjugation efficiency (FIG. 7)” value with N901 antibody with DM1 (1.7-fold molar excess of DM1, compared with 100% efficiency of SSNPP) is “not sufficient to achieve a similar efficiency”. For the same molecule, the results for the “% Efficiency (DM1 per antibody divided by linker per antibody times 100)” value in the series on N901 antibody with DM1 (setting [5]) and in the series with N901 antibody with DM1 (setting [7]) were 70% and 77%, respectively. Moreover, the DM1/Ab with N901 antibody with DM1 (setting [5]) is on record as 4.6; in the series with N901 antibody with DM1 (setting [6]), 4.3; in the series with N901 antibody with DM1 (setting [7]), 4.3. The “% efficiency” value turned out to be 73% with N901 antibody with DC4 (2 h) and 91% in the series with N901 antibody with DC4 (18 h). In addition, the DC4/Ab is given as 4.1 with N901 antibody with DC4 (2 h) and 5.1 with N901 antibody with DC4 (18 h).

In the case of `CC(CCC(=O)ON1C(=O)CC(S(=O)(=O)O)C1=O)SSc1ccc([N+](=O)[O-])cn1` (centres unmarked) [SSNPP, N-Sulfosuccinimidyl 4-(5-nitro-2-pyridyldithio)-pentanoate], the Linker/Ab was found to be 4.0 in the series on N901 antibody (setting [1]), 4.1 in the series with N901 antibody (setting [2]), 4.2 with N901 antibody (setting [3]) and 4.2 in the series on N901 antibody (setting [4]). In addition, the “conjugation efficiency (FIG. 7)” value in the series on N901 antibody with DM1 (1.1-fold molar excess of DM1) was determined as 100%. Also, the “amount of drug required to obtain comparable conjugation results, lower than for SPP-modified antibody” value in the series with N901 antibody with DM1 (Table 2 conditions, SSNPP-modified vs SPP-modified antibody) was 25%. The “reduction in the amount of drug needed to achieve a target DM1 to antibody ratio, instead of SPP” value in the series on N901 antibody with DM1 (lower molar excess of DM1 and fewer linkers per antibody) was at most 50%. The “% Efficiency (DM1 per antibody divided by linker per antibody times 100)” value with N901 antibody with DM1 (setting [5]) and in the series with N901 antibody with DM1 (setting [7]) was 93% in each case. In addition, the DM1/Ab is given as 3.7 with N901 antibody with DM1 (setting [5]), 4.3 in the series on N901 antibody with DM1 (setting [6]) and 3.8 in the series with N901 antibody with DM1 (setting [7]). Moreover, the DC4/Ab in the series on N901 antibody with DC4 (2 h) is 4.3; in the series with N901 antibody with DC4 (18 h), 4.1. For the same molecule, the “% efficiency” value with N901 antibody with DC4 (18 h) is listed as 98%.
